# Source: patent US20240368183A1, “Macrocyclic Compounds Having ENT1 Inhibiting Activity” (iTeos Belgium SA, priority 2021, published 2024)
# By UniProt entry, the sequences of proteins in these tests, tags left out.
# UniProt Q99808, whole entry: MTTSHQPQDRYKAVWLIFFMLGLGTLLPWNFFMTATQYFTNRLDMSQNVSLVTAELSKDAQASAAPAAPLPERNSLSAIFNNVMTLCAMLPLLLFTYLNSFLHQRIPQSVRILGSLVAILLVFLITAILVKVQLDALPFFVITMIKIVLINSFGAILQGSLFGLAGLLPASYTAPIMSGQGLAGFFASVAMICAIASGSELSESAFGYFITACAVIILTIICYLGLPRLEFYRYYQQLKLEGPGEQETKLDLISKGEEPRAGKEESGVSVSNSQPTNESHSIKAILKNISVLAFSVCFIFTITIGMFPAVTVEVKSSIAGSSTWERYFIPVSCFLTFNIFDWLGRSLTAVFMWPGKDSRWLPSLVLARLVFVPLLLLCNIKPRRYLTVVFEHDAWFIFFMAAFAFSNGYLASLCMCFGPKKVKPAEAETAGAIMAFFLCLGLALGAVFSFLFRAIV
# Molecular target: human ENT1 (Homo sapiens, UniProt Q99808)
# Experiment: ENT1 binding assay (competition with Sahenta-DY647)
# Details: read-out: Binding Assay IC50; JAR cells expressing ENT1; competition with Sahenta-DY647 (100 nM); 4° C.; tested form: TFA
# Description: The present assay aims at showing that the compounds of the present disclosure can bind to human ENT1. The principle of the assay is a competition between the compounds of this present disclosure and Sahenta-DY647, an ENT1 inhibitor that emits fluorescence (Ex=630 nm, Em=670 nm). By measuring the fluorescence at the end of the assay we could assess the binding potency of the compounds of the present disclosure.
# JAR cells expressing ENT1 were bought from ATCC® (HTB-144TM). Cells were cultured in RPMI 1640 medium (LONZA®, #BE12-702F/U1) supplemented with 10% FBS (GIBCO®, #10270-106), 10 mM Hepes (LONZA®, #BE17-737E), 1 mM Sodium Pyruvate (LONZA®, #BE13-115E) and 2% Penicillin/Streptomycin (LONZA®, #DE17-603E) at 37° C. and 5% CO2. The assay was conducted on the following buffer: HBSS (LONZA®, #LO-527F) supplemented with 10 mM Hepes (LONZA®, #BE17-737E) and 0.1% BSA (Miltenyi®, #130-091-376) on the day of the assay.
# JAR cells were resuspended in the described buffer. Compounds of the present disclosure and Sahenta-DY647 were diluted 200× in the described buffer.
# A total of 50 000 cells were pre-incubated for 30 min at 4° C. with the compounds of the present disclosure before adding the corresponded IC90 of Sahenta-DY647 (100 nM) and incubate once more for 30 min at 4° C. […]
smiles,measurement,value
COc1cc(C(=O)O[C@@H]2CCCOc3cc(cc(OC)c3OC)C(=O)NCCCN3CCN(CC2)CC3)cc(OC)c1OC,IC50,20 to 500 nM

# The structures given here were assigned with low confidence; some may be wrong.
